Screen size: about 300,000 compounds; about 1,200 (0.4%) were called active. Listed are the inconclusive results; actives and inactives stand elsewhere. The call rests on the fitted dose curve; in most records, active means well fitted inhibition curve with a large enough effect; inconclusive means small, poorly fitted or top-dose-only effect, or another doubt; inactive means no such curve, though single readings can be large or run the other way. Some tests of the compounds listed are not included; inactive here does not mean inactive elsewhere.
molecular target: Lysosomal alpha-glucosidase (Homo sapiens) (UniProt P10253); experiment: qHTS Assay for Inhibitors and Activators of Human alpha-Glucosidase Cleavage of Glycogen; settings: recombinant GAA, glycogen substrate, Amplex Red glucose oxidase fluorescence;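 further: the screen sought inhibitors and activators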
From the text: NIH Chemical Genomics Center [NCGC] NIH Molecular Libraries Probe Production Centers Network [MLPCN] MLPCN Grant: R03 MH084841-01 Assay Submitter (PI): Wei Zheng NCGC Assay Overview: Alpha-glucosidase is responsible for the hydrolysis of terminal, non-reducing 1,4-linked alpha-D-glucose residues, which releases alpha-D-glucose. It is a lysosomal hydrolase that is required for the degradation of a small percentage (1-3%) of cellular glycogen in humans. Deficiency of this enzyme results in glycogen-storage disease type II (GSDII), also referred to as Pompe disease, an autosomal recessive disorder. Structurally normal glycogen is accumulated in the lysosomes and cytoplasm in affected patients, primarily in muscle tissues. […]
NCGC Assay Protocol Summary: This is an enzyme assay using glycogen from bovine liver (Sigma catalog #: G0885) as the substrate and recombinant human alpha-glucosidase as the enzyme preparation. Upon hydrolysis of the substrate, the glucose product can be detected using the Amplex Red Glucose Oxidase Assay Kit (Invitrogen catalog #: A22189). The product of this reaction can be read with a fluorescence plate reader with an excitation at 573 nm and an emission at 610 nm. […] The AC50 values were determined from concentration-response data modeled with the standard Hill equation. […] (7) Detect the assay plate in a ViewLux plate reader (PerkinElmer) with Ex=573 nm and Em=610nm. […]
Potency means the concentration at half of the fitted maximal effect.

SMILES	Potency
COc1ccc(Br)c(C(=O)NCC2(N3CCCCC3)CCCCC2)c1	inconclusive: 50.1 µM

Reference: PubChem BioAssay AID2100 (National Center for Advancing Translational Sciences (NCATS), 2009)
